PubChem BioAssay AID588590 (National Center for Advancing Translational Sciences (NCATS), 2011)
Among all 390,000 compounds or so, about 4,000 (1%) were called active. Inconclusive means that the source gave no clear call. Such entries were picked first, then a sample of the others. The call rests on the fitted dose curve; in most records, active means well fitted inhibition curve with a large enough effect; inconclusive means small, poorly fitted or top-dose-only effect, or another doubt; inactive means no such curve, though single readings can be large or run the other way. Where the call is inconclusive, the potency comes from a doubtful curve fit.
Potency means the concentration at half of the fitted maximal effect.

Protein sequences, listed by entry. Tags and fused reporters are not part of them. Lines headed by an entry give the natural chain unless they say otherwise; changes in a name come on top.
UniProt Q9UNA4: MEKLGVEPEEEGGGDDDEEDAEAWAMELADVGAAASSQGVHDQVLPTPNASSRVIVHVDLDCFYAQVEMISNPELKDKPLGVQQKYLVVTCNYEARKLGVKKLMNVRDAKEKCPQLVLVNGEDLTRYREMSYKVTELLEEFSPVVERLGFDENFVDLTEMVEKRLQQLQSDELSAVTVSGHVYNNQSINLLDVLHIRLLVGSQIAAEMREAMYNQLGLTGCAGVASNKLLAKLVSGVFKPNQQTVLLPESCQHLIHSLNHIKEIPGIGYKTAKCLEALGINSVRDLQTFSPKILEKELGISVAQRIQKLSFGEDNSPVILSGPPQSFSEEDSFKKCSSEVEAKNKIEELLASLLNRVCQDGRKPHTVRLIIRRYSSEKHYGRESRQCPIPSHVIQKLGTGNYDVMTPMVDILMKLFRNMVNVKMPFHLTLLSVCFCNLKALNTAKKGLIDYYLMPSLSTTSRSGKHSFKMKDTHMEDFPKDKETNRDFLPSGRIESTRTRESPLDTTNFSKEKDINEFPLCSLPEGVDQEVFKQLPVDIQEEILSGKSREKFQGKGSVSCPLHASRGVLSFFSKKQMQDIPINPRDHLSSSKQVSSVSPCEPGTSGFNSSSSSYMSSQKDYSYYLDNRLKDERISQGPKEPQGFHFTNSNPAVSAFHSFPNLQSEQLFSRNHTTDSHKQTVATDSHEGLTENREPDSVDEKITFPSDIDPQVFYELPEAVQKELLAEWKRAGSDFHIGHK

The compounds below were run against DNA polymerase iota (Homo sapiens) (UniProt Q9UNA4) (assay: qHTS for Inhibitors of Polymerase Iota). Conditions: Pol iota fluorescent replication assay, 10 min; series mostly up to 115 µM; activity, negative = inhibition: at the top concentration.
Outline: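 Fluorescent replication assay read twice, at 0 min and 10 min after adding 50 nM (final) substrate. Enzyme (10 nM) and compounds were first incubated 15 min at room temperature; enzyme-free buffer wells were negative controls.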
For Cc1ccc(NC(=O)Cn2cccc2)cc1Cl, the Potency was inconclusive: 79.4 µM [inhibitor, partial curve].
O=C(c1cccs1)N(Cc1ccco1)c1ccc(O)cc1 was tested, and the “activity, negative = inhibition” value was inactive: 14.9%.
With CCOc1ccc(NC(=O)CN2CCSc3ccc(S(=O)(=O)N4CCCC4)cc32)cc1 the “activity, negative = inhibition” value was inactive: -13.3%.
With Cc1ccccc1-n1c(=O)/c(=C\c2ccco2)s/c1=C(/C#N)C(=O)Nc1ccccc1 the “activity, negative = inhibition” value was inactive: -1.91%.
CCCOc1ccc(C2NC(=S)NC(C)=C2C(=O)c2ccccc2)cc1OC (configuration not stated) was tested, and the “activity, negative = inhibition” value was inactive: -13.9%.
For CCOC(=O)c1c(NC(=O)CSc2nnc(-c3ccccc3C)n2C)sc(C(C)=O)c1C, the “activity, negative = inhibition” value was inactive: 15.4%.
With Cc1cc(N)c2ccccc2[n+]1CCCCCCCCCCCCCC[n+]1c(C)cc(N)c2ccccc21 the “activity, negative = inhibition” value was inactive: -123% [at 58.9 µM].
With COc1ccc(CN2CSC(=S)N(Cc3ccccc3)C2)cc1 the Potency was inconclusive: 0.708 µM [inhibitor, full curve, poor fit].
CS(=O)(=O)Nc1ccc2c(c1)nc1n2CCOC1 was tested, and the Potency was inconclusive: 39.8 µM [inhibitor, single point].
O=C(O)/C(=C\c1ccc(-c2ccccc2[N+](=O)[O-])o1)c1ccccc1 was tested, and the “activity, negative = inhibition” value was inactive: -2.84%.
With CSc1ccc(C(c2c(C(=O)O)[nH]c3ccccc23)c2c(C(=O)O)[nH]c3ccccc23)cc1 the Potency was inconclusive: 50.1 µM [inhibitor, single point].
For CN(C)c1ccc(/C=N/NC(=O)CCCO)cc1, the Potency was inconclusive: 100 µM [inhibitor, partial curve, poor fit].
In the case of CCCCC(C(=O)OCC)C(N)Cc1ccc(F)cc1 (configuration not stated), the Potency is reported as inconclusive: 39.8 µM [inhibitor, single point].
In the case of Cc1c(C(=O)NCc2ccc(F)cc2)sc2nc(-c3ccc(F)cc3)cn12, the “activity, negative = inhibition” value is reported as inactive: -14.4%.
For Cc1cc(C(=O)Nc2cccc3c2O[C@@H](CN(C)S(C)(=O)=O)[C@H](C)CN([C@@H](C)CO)C3=O)n(C)n1, the “activity, negative = inhibition” value was inactive: -5.23%.
With COc1cc2c(NC3CCN(C)CC3)nc(N3CCCN(C)CC3)nc2cc1OCCCCCN(C)C the Potency was inconclusive: 25.1 µM [inhibitor, full curve, poor fit].
For Cc1nc(N2CCN(C)CC2)c2nnn(Cc3ccccc3)c2n1, the “activity, negative = inhibition” value was inactive: 14.5%.
For CCOC(=O)C1CCN(C(=O)CNS(=O)(=O)c2ccc(Br)s2)CC1, the Potency was inconclusive: 79.4 µM [inhibitor, partial curve, poor fit].
For Cc1ccccc1CN1C(=O)c2ccccc2S(=O)c2ccc(C(=O)NCc3ccc4c(c3)OCO4)cc21 (configuration not stated), the “activity, negative = inhibition” value was inactive: 8.81%.
In the case of Cn1cccc1Cc1nnc(SCC(=O)NCc2ccco2)n1CCc1ccccc1, the Potency is reported as active: 22.4 µM.
With C/C=C/c1ccc(OCC(O)CN(C)Cc2ccc(SC)cc2)c(OC)c1 (configuration not stated) the Potency was inconclusive: 4.47 µM [inhibitor, full curve].
In the case of CS(=O)(=O)N1CCC(C(=O)NCC2CCCO2)CC1 (configuration not stated), the Potency is reported as inconclusive: 112 µM [inhibitor, partial curve, poor fit].
With COc1ccc(/C=N/NS(=O)(=O)c2ccc(C)cc2)cc1OC(=O)c1ccccc1 the Potency was inconclusive: 79.4 µM [inhibitor, partial curve, poor fit].
In the case of CCNc1nc(C#N)nc(NCC)n1, the “activity, negative = inhibition” value is reported as inactive: 7.86%.
With COc1cc(CC(=O)OCC(=O)Nc2ncc(Cl)cc2Cl)cc(OC)c1OC the Potency was inconclusive: 22.4 µM [inhibitor, full curve, poor fit].
CN1C(=O)CC(NNC(=O)c2ccc(Cl)cc2)C1=O (configuration not stated) was tested, and the Potency was inconclusive: 112 µM [inhibitor, single point].
CC(=O)Nc1ccc(S(=O)(=O)N2CCC(C(=O)c3ccc(Cl)cc3)CC2)cc1 was tested, and the Potency was inconclusive: 89.1 µM [inhibitor, single point].
For COC1=C(C)C(=O)C2=C(C1=O)C1C3CC4=C(C(=O)C(OC)=C(C)C4=O)C(CNC(=O)C(C)=O)N3C(C#N)C(C2)N1C (configuration not stated), the Potency was inconclusive: 25.1 µM [inhibitor, partial curve, poor fit].
Cc1ccc(Nc2nc(CSc3nnnn3-c3ccccc3)cc(=O)[nH]2)cc1 was tested, and the Potency was inconclusive: 100 µM [inhibitor, single point].
With N#Cc1cccc(NC(=O)CCNS(=O)(=O)c2ccc3c(c2)CCN3C(=O)C2CC2)c1 the “activity, negative = inhibition” value was inactive: -1.83%.
In the case of Cc1onc(-c2ccccc2)c1CNC(=O)CN1C(=O)c2ccccc2C1=O, the Potency is reported as inconclusive: 44.7 µM [inhibitor, partial curve, poor fit].
COc1ccc(/C=N/N(C)C2=NCCN2)c(OC)c1OC was tested, and the Potency was inconclusive: 28.2 µM [inhibitor, partial curve, poor fit].
In the case of COCCN(Cc1ccccc1)C(=O)c1ccc2c(c1)NC(=O)CS2, the Potency is reported as inconclusive: 79.4 µM [inhibitor, single point].
For Cc1ccc(CCNS(=O)(=O)c2ccc3c(c2)NC(=O)C(C)C(=O)N3)cc1 (configuration not stated), the Potency was inconclusive: 79.4 µM [inhibitor, single point].
COC(=O)c1cc(C)ccc1/C=C1/Cc2c(C)cc(C)cc2C1=O was tested, and the Potency was inconclusive: 89.1 µM [inhibitor, single point].
For CCCNC(=O)Cn1c(SCc2ccccc2C)nc2ccncc21, the “activity, negative = inhibition” value was inactive: 25.2%.
In the case of COC(=O)c1ccccc1NC(=O)Cn1c(=O)cc(C)c2c(C)nn(-c3cccc(Cl)c3C)c21, the “activity, negative = inhibition” value is reported as inactive: 34.6%.
In the case of C/C(=N\Nc1nc2c(s1)CCCC2)c1ccc(Cl)cc1, the Potency is reported as inconclusive: 79.4 µM [inhibitor, partial curve, poor fit].
In the case of COc1ccc(S(=O)(=O)N2CCc3ccccc32)cc1C(=O)Nc1ccc(NC(C)=O)cc1, the Potency is reported as inconclusive: 70.8 µM [inhibitor, partial curve].
Cc1ccc(-n2c(N)c(C#N)c(-c3ccccc3)c(C#N)c2=O)cc1 was tested, and the Potency was inconclusive: 0.631 µM [inhibitor, full curve, poor fit].
For CCOC(=O)C1CCCN(C(=O)c2ccc(NC(=O)c3nsc4ccccc34)cc2)C1 (configuration not stated), the “activity, negative = inhibition” value was inactive: 8.37%.
Cc1ccc(CNC(=O)CN(c2cccc([N+](=O)[O-])c2)S(C)(=O)=O)cc1 was tested, and the “activity, negative = inhibition” value was inactive: 64.1%.
O=C(COC(=O)c1cc(F)cc(F)c1)NCCCc1ccccc1 was tested, and the “activity, negative = inhibition” value was inactive: 25.2%.
CCCCOC(=O)c1cc(C)nc2ccc(Br)cc12 was tested, and the Potency was inconclusive: 79.4 µM [inhibitor, single point].
For O=C(OCC(=O)N1CCc2ccccc21)[C@@H]1CCCN1S(=O)(=O)c1ccccc1F, the Potency was inconclusive: 50.1 µM [inhibitor, partial curve, poor fit].
With O=C1CC(N(CCc2ccccc2)C(=S)Nc2ccccc2)C(=O)N1c1ccc(F)cc1 (configuration not stated) the Potency was inconclusive: 39.8 µM [inhibitor, single point].
With COc1ccc(B(O)O)c(CN2CCN(C(=O)OC(C)(C)C)CC2)c1 the Potency was inconclusive: 0.794 µM [inhibitor, full curve, poor fit].
COC(=O)CC(c1ccc(OC)c(OC)c1)c1ccc(OC)c(OC)c1 was tested, and the “activity, negative = inhibition” value was inactive: 13.4%.
CC(Cc1cccs1)NC(=O)Nc1ccc([N+](=O)[O-])cc1 (configuration not stated) was tested, and the Potency was inconclusive: 50.1 µM [inhibitor, partial curve, poor fit].
With C/C(=N\NC(N)=S)C1C2C3CC4C5CC(C42)C1C53 (configuration not stated) the Potency was inconclusive: 39.8 µM [inhibitor, single point].
For C(=C\c1ccccc1)/C=N/Nc1nc(N2CCOCC2)nc(N2CCOCC2)n1, the Potency was inconclusive: 35.5 µM [inhibitor, partial curve, poor fit].
Oc1cccc2ccc[n+](CC(O)Cn3c4ccccc4c4ccccc43)c12 (configuration not stated) was tested, and the Potency was inconclusive: 126 µM [inhibitor, partial curve, poor fit].
COC(=O)c1ccc(C)c(NC(=O)CSc2sc3c(O)cc(=O)[nH]c3c2C#N)c1 was tested, and the Potency was active: 12.6 µM.
For N#C/C(=C\c1ccccc1)C(=O)NCc1ccc(F)cc1, the Potency was inconclusive: 39.8 µM [inhibitor, single point].
With CCc1ccc(NC(=O)c2ccc(F)c(S(=O)(=O)NCCc3ccc(OC)c(OC)c3)c2)cc1 the Potency was inconclusive: 89.1 µM [inhibitor, single point].
In the case of O=C1c2ccc([N+](=O)[O-])cc2C(=O)N1Cc1cccnc1, the Potency is reported as inconclusive: 89.1 µM [inhibitor, partial curve, poor fit].
With Cn1c(Oc2ccccc2)nc2c1c(=O)n(Cc1ccc(Cl)cc1Cl)c(=O)n2C the “activity, negative = inhibition” value was inactive: 21.7%.
For c1ccc(NC2=NCCN2CC2CCCCCC2)cc1, the Potency was inconclusive: 28.2 µM [inhibitor, partial curve, poor fit].
With Cc1cccc(C(=O)OCc2cc(=O)n3nc(-c4cccs4)sc3n2)c1 the Potency was active: 89.1 µM.
In the case of Cc1ccc(C(=O)O)cc1S(=O)(=O)N1CCC(C(=O)O)CC1, the Potency is reported as inconclusive: 63.1 µM [inhibitor, partial curve, poor fit].
With CC(=O)c1ccc2c(c1)N(CCCN1CCC(CCO)CC1)c1ccccc1S2 the Potency was inconclusive: 100 µM [inhibitor, single point].
In the case of CN(C)CCC(=O)C(Cc1ccccc1)c1ccccc1 (configuration not stated), the Potency is reported as inconclusive: 50.1 µM [inhibitor, partial curve, poor fit].
With CC(C)N(C(=O)CSc1nc(COc2ccccc2)nc2ccccc12)C(C)C the Potency was inconclusive: 63.1 µM [inhibitor, partial curve, poor fit].
In the case of CCCCCCN1C=CC(=C/C=C(\C#N)C(=O)OCC)C=C1, the Potency is reported as inconclusive: 79.4 µM [inhibitor, single point].
In the case of Cc1ccccc1C(c1c(C)n(C)n(-c2ccccc2)c1=O)c1c(C)n(C)n(-c2ccccc2)c1=O, the “activity, negative = inhibition” value is reported as inactive: -15.1%.
For N#CC(=Cc1ccc(O)c(O)c1)C(=O)NCc1ccccc1, the Potency was active: 70.8 µM.
In the case of CCCNC(=O)c1c(N)n(-c2ccc(S(N)(=O)=O)cc2)c2nc3ccccc3nc12, the Potency is reported as inconclusive: 39.8 µM [inhibitor, full curve].
